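DAOY medulloblastoma cells exposed to compounds for 48 hours, with luminescence from metabolically active cells serving as a viability measure. Each compound ran as a dilution series, mostly reaching about 46 µM at the top. The value is the fitted half-maximal potency (AC50) for cell killing; a lower number means a more potent compound. Calls come from curve class: inconclusive rows carry a score of 1 to 39 because their curves are weak, partial, poorly fitted or single-point, while actives score 40 to 100.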

Values are in µM. All entries here are filed as inconclusive. Only part of the assay is shown, chiefly results filed as inconclusive. A potency from a partial, single-point or poor curve is only a rough figure. Some entries filed as inconclusive have a full curve. Activity scores are not listed here.

SMILES | Potency (µM) | curve
COc1cc(Nc2ncc3c(n2)-c2ccc(Cl)cc2C(c2c(F)cccc2OC)=NC3)ccc1C(=O)O | 0.0066 | cytotoxic, full curve, poor fit
O=C(Nc1cccc(Br)c1)c1cccc(S(=O)(=O)N2CCCCCC2)c1 | 18.51 | cytotoxic, partial curve
COc1cc2c(cc1OC)[C@@H]1Cc3ccc(OC)c(OC)c3CN1CC2 | 4.649 | cytotoxic, partial curve, poor fit
CN[C@@H](C)C(=O)N[C@H]1CN(C(=O)CC(C)C)CC[C@H]2CC[C@@H](C(=O)NC(c3ccccc3)c3ccccc3)N2C1=O | 1.31 | cytotoxic, full curve, poor fit
Cc1cn(-c2cc(NC(=O)c3ccc(C)c(Nc4nccc(-c5cccnc5)n4)c3)cc(C(F)(F)F)c2)cn1 | 32.91 | cytotoxic, single point
CC(C)C[C@H](NC(=O)[C@H](CCc1ccccc1)NC(=O)CN1CCOCC1)C(=O)N[C@@H](Cc1ccccc1)C(=O)N[C@@H](CC(C)C)C(=O)[C@@]1(C)CO1 | 0.1041 | cytotoxic, full curve, poor fit
CC(S)C(=O)NCC(=O)O (stereo not given) | 2.933 | cytotoxic, full curve, poor fit
COC(=O)C1C2CC3c4[nH]c5cc(OC)ccc5c4CCN3CC2CC(OC(=O)c2cc(OC)c(OC)c(OC)c2)C1OC (stereo not given) | 16.49 | cytotoxic, partial curve
COc1cc2c(cc1Cc1cccc(Cl)c1F)c(=O)c(C(=O)O)cn2[C@H](CO)C(C)C | 26.14 | cytotoxic, single point
Nc1nc(F)nc2c1ncn2[C@@H]1O[C@H](CO)[C@@H](O)[C@@H]1O | 2.614 | cytotoxic, full curve, poor fit
C[C@H](c1ccc(F)cc1CCCC(=O)O)N(c1cc(F)ccc1F)S(=O)(=O)c1ccc(Cl)cc1 | 20.76 | cytotoxic, partial curve, poor fit
COc1cc(C[C@@H](CO)[C@H](CO)Cc2ccc(O)c(OC)c2)ccc1O | 18.51 | cytotoxic, partial curve
Clc1ccc(C(c2ccccc2Cl)C(Cl)Cl)cc1 (stereo not given) | 29.33 | cytotoxic, single point
COc1cc2ncnc(Nc3cc(Br)c(O)c(Br)c3)c2cc1OC | 20.76 | cytotoxic, partial curve, poor fit
CCc1c2c(nc3ccc(O)cc13)-c1cc3c(c(=O)n1C2)COC(=O)[C@]3(O)CC | 10.41 | cytotoxic, partial curve, poor fit
Cc1cc(C2CCCCC2)n(O)c(=O)c1 | 7.367 | cytotoxic, full curve
CCOC(=O)C1=C(C)NC(=S)NC1c1cccc(O)c1 (stereo not given) | 36.92 | cytotoxic, single point
CC(C)CC(=O)Nc1n[nH]c2c1CN(C(=O)C1CCN(C)CC1)C2(C)C | 11.68 | cytotoxic, partial curve
CN(CC(=O)N(Cc1ccc(C2CCCCC2)cc1)c1ccc(C(=O)O)c(O)c1)S(=O)(=O)c1c(F)c(F)c(F)c(F)c1F | 26.14 | cytotoxic, single point
CS(=O)(=O)Nc1ccc([N+](=O)[O-])cc1Oc1ccccc1 | 6.566 | cytotoxic, full curve, poor fit
CS(=O)(=O)N1CCc2c(-c3cnc(N)nc3)nc(N3CCOCC3)nc21 | 5.852 | cytotoxic, full curve, poor fit
CCc1nc(N)nc(N)c1-c1ccc(Cl)cc1 | 5.216 | cytotoxic, full curve
CCC(C)n1ncn(-c2ccc(N3CCN(c4ccc(OC[C@H]5CO[C@](Cn6cncn6)(c6ccc(Cl)cc6Cl)O5)cc4)CC3)cc2)c1=O (stereo not given in full) | 8.266 | cytotoxic, full curve
O=C(O)c1ccc(-c2cc3cccnc3c(-c3ccc4nonc4c3)n2)cc1 | 18.51 | cytotoxic, partial curve, poor fit
COc1c(C)c2c(c(O)c1C/C=C(\C)CCC(=O)OCCN1CCOCC1)C(=O)OC2 | 2.076 | cytotoxic, full curve

Some entries from above, unchanged:

SMILES	Potency (µM)	curve
CS(=O)(=O)Nc1ccc([N+](=O)[O-])cc1Oc1ccccc1	6.566	cytotoxic, full curve, poor fit
CS(=O)(=O)N1CCc2c(-c3cnc(N)nc3)nc(N3CCOCC3)nc21	5.852	cytotoxic, full curve, poor fit
COc1cc(Nc2ncc3c(n2)-c2ccc(Cl)cc2C(c2c(F)cccc2OC)=NC3)ccc1C(=O)O	0.0066	cytotoxic, full curve, poor fit

The results are deposited in PubChem (AID1347114; NCATS, 2019).